These are yes or no findings as the source states them, for the method shown. Some results given as binding are weak or reduced against the parent protein; the word gives no strength. For part of these data: Tags and fused reporters may be left off the sequences shown. Blank lines part the entries; values can stand above or below the binder they belong to.
Experiments:
Activin Receptor IIa [1] = target: Activin Receptor IIa (UniProt P27037); experiment: BiaCore CM5 chip, ActRIIa amine coupled, mature BMP-3 injected at 200 µg/ml
Activin Receptor IIa [2] = target: Activin Receptor IIa (UniProt P27037); experiment: BiaCore CM5 chip, ActRIIa amine coupled, mature BMP-3 injected at 200 µg/ml (FIG. 13 legend)
mature BMP-3 (human) [3] = target: T1, mature BMP-3 (human) (UniProt P12645); experiment: BiaCore CM5 chip, BMP3 pro-MuIgG2a amine coupled, mature BMP-3 flowed over
T1 sequence: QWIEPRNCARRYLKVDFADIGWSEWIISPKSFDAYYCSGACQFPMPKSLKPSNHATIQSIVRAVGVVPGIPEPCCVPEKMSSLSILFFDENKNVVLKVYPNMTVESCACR

The chains behind the UniProt entries cited, without tags or fusion partners.
UniProt P27037: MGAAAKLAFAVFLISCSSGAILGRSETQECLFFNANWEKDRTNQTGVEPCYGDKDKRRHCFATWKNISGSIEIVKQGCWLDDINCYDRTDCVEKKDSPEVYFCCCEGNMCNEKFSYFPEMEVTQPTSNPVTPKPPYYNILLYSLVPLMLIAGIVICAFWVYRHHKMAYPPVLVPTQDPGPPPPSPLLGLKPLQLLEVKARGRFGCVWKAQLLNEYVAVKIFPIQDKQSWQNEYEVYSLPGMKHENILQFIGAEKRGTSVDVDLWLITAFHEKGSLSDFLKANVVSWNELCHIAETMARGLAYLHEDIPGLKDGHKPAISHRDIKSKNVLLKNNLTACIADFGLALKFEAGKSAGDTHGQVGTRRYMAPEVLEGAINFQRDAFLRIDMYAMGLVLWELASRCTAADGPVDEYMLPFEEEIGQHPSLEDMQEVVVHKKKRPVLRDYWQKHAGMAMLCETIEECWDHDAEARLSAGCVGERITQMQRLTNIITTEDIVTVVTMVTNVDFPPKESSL

mature BMP-3 (human) [4] = target: T1, mature BMP-3 (human); experiment: immunoprecipitation on protein A beads, western blot (FIG. 11 legend)
mature BMP-3 (human) [5] = target: T1, mature BMP-3 (human); experiment: immunoprecipitation on protein A beads from conditioned media, western blot with anti-mature BMP-3 monoclonal antibody
mature BMP-3 (human) [6] = target: T1, mature BMP-3 (human); experiment: BiaCore CM5 chip, BMP3 pro-MuIgG2a amine coupled, mature BMP-3 flowed over (FIG. 12 legend)

- binding (Activin Receptor IIa [1]): binds
- binding (Activin Receptor IIa [2]): binds
B1: mature BMP-3 (ligand)
chain: T1 sequence

- binding (mature BMP-3 (human) [3]): binds
- binding (mature BMP-3 (human) [4]): binds
- binding (mature BMP-3 (human) [5]): binds
- binding (mature BMP-3 (human) [6]): binds
B2: BMP3A propeptide-Murine IgG2a peptide Fc fusion protein (Fc fusion, not shown: a dimerising Fc or GST)
chain: ERPKPPFPELRKAVPGDRTAGGGPDSELQPQDKVSEHMLRLYDRYSTVQAARTPGSLEGGSQPWRPRLLREGNTVRSFRAAAAETLERKGLYIFNLTSLTKSENILSATLYFCIGELGNISLSCPVSGGCSHHAQRKHIQIDLSAWTLKFSRNQSQLLGHLSVDMAKSHRDIMSWLSKDITQFLRKAKENEEFLIGFNITSKGRQLPKRRLPFPEPYILVYANDAAISEPESVVSSLQGHRNFPTGTVPKWDSHIRAALSIERRKKRSTGVLLPLQNNELPGAEYQYKKDEVWEERKPYKTLQAQAPEKSKNKKKQRKGPHRKSQTLQFDEQTLKKARRK
